US12208227B2, “Precision bio-chemotronic system” (THE REGENTS OF THE UNIVERSITY OF MICHIGAN, priority 2017, dated 2025)
At least one structure is not confirmed: it was looked up by name or label, or the drawing left a doubt.

Assays:
[1] = Dissolution of printed films versus original loose powders; format: physicochemical; conditions: deionized water, 23 μg weight, 10 ml
[2] = Intrinsic dissolution rate, rotating disk dissolution apparatus; format: physicochemical; conditions: deionized water; films comparable to compressed pellets; 100 rpm, 10 ml, 20±1° C.

## O=C1OC2(c3ccc(O)cc3Oc3cc(O)ccc32)c2ccccc21 [fluorescein]
[1]
  enhancement of initial dissolution rate, film-form versus loose powder: ten-fold
[2]
  intrinsic dissolution rate (IDR): 3·10^−5±5·10^−6 μg sec^−1 mm^−2
